Source: the supplement of paper PMC3334620
In all, about 33,000 sequences were measured (“E-score (-0.5 to 0.5)”: median about -8e-05, highest 2% from about 0.23 on). This is one part of the list.

These sequences were tested against T1, Nrg2 (UniProt P38082) (assay: PBM E-score (8-mer binding enrichment) (E-score (-0.5 to 0.5)); higher = stronger / more preferred TF binding). Details: protein concentration: 100 nM; construct: GST-full length.
T1 sequence: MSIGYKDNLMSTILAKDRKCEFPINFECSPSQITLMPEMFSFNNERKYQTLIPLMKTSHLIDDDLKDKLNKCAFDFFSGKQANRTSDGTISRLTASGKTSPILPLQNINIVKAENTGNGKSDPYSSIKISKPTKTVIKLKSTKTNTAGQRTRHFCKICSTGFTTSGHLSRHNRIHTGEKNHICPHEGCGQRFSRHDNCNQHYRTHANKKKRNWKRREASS
Summary of the method: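 The E-score, a modified Wilcoxon-Mann-Whitney statistic, was computed by the Universal PBM Analysis Suite for every ungapped eight-base word pooled with its reverse complement. Scans behind it were normalised with masliner after bound GST-tagged yeast transcription factors were detected with fluorescent anti-GST. The proteins, at about 100-200 nM, had been applied to universal all-10-mer Agilent arrays made double-stranded by primer extension.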

Sequence	PBM E-score
GCGCAACA	0.0618
CCGGTAAC	-0.136
AACTACCT	0.101
ATACGGTG	-0.0251
ATCAACAA	0.155
ACGATGCC	-0.229
ATAAGTTG	0.0867
CTAAAGCC	-0.243
AGGAAGTG	0.0526
GTACGTGA	-0.0739
GCGTCTTA	-0.156
GGCTGAAC	0.113
ATGAAATG	0.143
CCGACACC	-0.284
AAATAGCT	-0.00795
GTGCGCTA	0.0902
CCCATTTC	0.0474
CACGCTTC	-0.164
CTGTTCAA	-0.0123
CTATCATA	0.125
AAACGACT	0.0569
TATTTTGA	-0.0616
CAGCATCA	0.00269
GCCATTTA	-0.0542
GCATGCCA	-0.00101

Sequence	PBM E-score
ATGGGAAT	-0.0749
TCGTCCAA	0.0325
CAAAGGCA	-0.173
CAAGTTAA	0.0273
TTCCCCAA	0.122
ACTATACT	0.179
CGGTACCC	-0.154
CCCAGCAG	0.0729
CCGCATGC	-0.0299
AACTGGCA	0.0237
AACTCAAT	0.0129
GCGAATAC	0.102
AACAATGG	0.0225
TAGACAAA	-0.0662
CCAGGCCA	-0.182
AATGTTCG	0.0723
CCGTCCCC	-0.223
ATACTTTA	0.0828
ATCTCTAG	-0.108
CTGCATAC	0.113
ATGTCCTG	0.0471
AAAATCAT	-0.0452
ACCTAGCT	-0.137
AATGGAGT	0.0222
GATCTTTA	0.171

Sequence	PBM E-score
AGGTCTTC	-0.27
ATTGGATG	0.0741
GACCACCA	0.0215
AATTTCTA	0.082
GTGCCCCA	-0.126
AAACCCGG	0.0908
TCAGACAA	0.0781
GGGCGATA	-0.115
CAGATAAA	0.148
CGGTCTGA	0.11
GTTGCCAA	0.0119
AATATCGG	0.137
AATCGCAG	0.16
ACTATTAA	0.175
AGAAATGC	0.0286
CGAGGAAC	0.269
ATTCTGGA	0.00838
AAGCAGCA	-0.124
ATTAGTCA	0.0975
GGCCATTA	0.124
CAGTTGGC	-0.0547
ACGCGATA	0.0412
CACATACG	-0.18
CGTGTACC	-0.031
AGGCTAAA	-0.0993

Sequence	PBM E-score
CACCGTTA	-0.0565
GGCGACAC	-0.175
CGTCTCGA	0.043
AATGATTA	0.159
AAGGATCC	-0.0151
AAATATTG	0.204
GTCTATGA	0.066
CCGGCAAG	0.0731
AGTTCATC	0.055
GGCGGGTA	-0.206
AAGGATGT	0.0432
CAAAACAA	0.0137
GACATTCC	-0.113
CACTCATG	0.0199
CTTGCACC	0.165
ACGCACAG	0.186
CCGCCCAC	0.015
AGGCGCTA	-0.109
CGAGGATC	0.0125
AAGGGCTA	-0.119
CCTGGGAG	-0.0975
GGGTGACC	-0.0516
AACTATAC	-0.0662
AACGTTAC	-0.0437
GAAGATCA	-0.073

Sequence	PBM E-score
GCGATGCA	-0.185
ACCAAACC	0.143
GTCGCGAA	0.125
ACCGACAT	0.123
CGAACAGA	-0.00674
AAGATCAC	0.0656
GCCAGGTA	-0.0513
CCAGGCTC	-0.0756
TATCCGAA	-0.0137
GAGAGCCA	-0.0221
CCGGGTTC	0.139
GCTTACGA	-0.197
ATTCTAAC	-0.0365
GTAATAGA	0.0231
CGTCTCAA	0.0469
AAAGAAAA	0.112
CCCCTTAC	0.0255
AGTATACG	0.0367
AATTTACA	-0.0448
ATAACATC	0.104
CAATAGCA	-0.102
ACTACGCC	-0.0991
ATGGTATA	0.0282
GGAAAGAA	0.0994
ACTGGGTC	-0.168

Sequence	PBM E-score
TGGCGCCA	0.123
CCTGGGAC	-0.165
CGGGGTCA	-0.0228
TGCGCCAA	0.0379
AACCTCTG	-0.127
AACAAGTA	-0.0255
CCCTCCCA	0.127
CTTTCTTA	0.0208
AAGATCCA	0.0354
GTTCAATA	-0.00563
CTTCCGGA	-0.204
GCGTAATA	0.0559
GACTCGGC	-0.235
AGTACGCG	0.191
GAATAGTC	0.0561
TATCCCCA	0.186
ATAGCTCC	-0.175
CAAAAGTC	-0.106
CACTCCAA	-0.0828
ATGGGAAA	-0.133
GTGTCTTA	-0.0401
ACCATAGT	-0.116
GCTATACA	-0.0994
CGCCATCC	-0.135
GTAAACAA	0.121

3 entries from above, bar-delimited.
Sequence | PBM E-score
CACATACG | -0.18
CGTGTACC | -0.031
AGGCTAAA | -0.0993

Further entries:

Sequence	PBM E-score
ATGTTGAA	0.153
AGTTTCAA	0.013
CTCAATGC	-0.129
AACGATGC	-0.193
AAACGAGT	0.172
AGCTCCTC	-0.254
CCGTGCCC	-0.247
CATGAGGA	0.00092
CCCCACGA	0.0753
GACATTAA	0.0858
TCCACGAA	0.151
TACAGCTA	-0.103
CGACTTGC	-0.038
ACGCAAAT	0.0425
GTGAGGAA	-0.0482
ACAATGAT	0.0575
CGTGAAAC	-0.0624
TCGGGCAA	0.115
GTTGCGAA	0.0679
GTCGGTAA	-0.0786
AGACAGCG	-0.0227
CGCACGGC	0.0495
ATATAAAC	0.255
GGGTTTAA	0.0664
AGTCGGCC	-0.086

Sequence	PBM E-score
CTTACCAC	-0.0769
AATAACCA	0.147
AATACAAC	0.185
GAGGAATC	-0.133
ATGATTAC	0.0117
AAATAAAA	0.0565
AGCCAGTA	0.0109
ACATTCAG	-0.104
TAGATATA	0.153
CTTATCAC	-0.0199
GGATGCGA	-0.0571
ATTCCATC	0.164
ACCCTATA	0.114
AGGAAACT	0.0285
AAAGATAA	0.112
CGGGCGGA	0.0877
GGCCTTAC	-0.132
CAGGACCG	-0.152
CGGGCTCC	-0.312
AAATGATC	-0.05
CTACAGGA	-0.0925
ATGCTTCG	-0.00542
CGTGTGTC	-0.125
ACGTTTAG	-0.0776
GCCAATTA	0.0951

Sequence	PBM E-score
ACAGGATC	-0.0733
CTCACGTC	-0.0243
AAAATATG	0.164
GAAACGAA	0.166
CGGGACTA	-0.0447
GAAGTGAC	-0.156
CCACATGA	-0.00123
CCCAATTA	0.0564
CGAAGGGC	0.0773
CGACCTCG	0.134
ACAATAAT	0.161
CACTCCTG	-0.0552
ACTGAAGC	-0.00321
TCACGAGA	-0.186
GCACCAGA	-0.0883
CCGCTTTC	-0.169
AGCCGCAA	-0.0078
GGGCTTCA	-0.103
CAAACGCG	0.0917
ATAGTCAG	0.0324
AACGCGAC	0.0416
ATTACCTC	0.0644
AATTAACG	0.0221
GCGTTAGA	0.0176
ATGCAAAG	0.0187

Sequence	PBM E-score
AATGCACT	0.121
CCATTGTA	0.0274
TACAAGCA	0.121
TGCCGACA	0.165
CCCGAAAC	0.0403
ACGTATAT	0.0241
ATCTGGTC	0.0416
GACAAACA	0.089
TGATGCAA	0.0294
ACCCGGAA	0.0171
CAAAATTC	0.131
GTCTAGAA	0.0141
TATTTAGA	0.0683
CTGAAGGC	-0.175
CATCCCCG	0.167
ATGATAGC	0.141
AAGAATTA	-0.0237
AAAGCCCA	-0.0731
GAAAGTCA	0.0315
CCTTAGCC	-0.00443
TCTAAAGA	0.00161
ACGGGCAC	-0.0313
CCAGTCAA	-0.0327
AACGGATA	0.258
ACTCCGGA	0.214

Sequence	PBM E-score
AACCTTAT	-0.166
AATAGATC	0.208
CGCGAGGC	0.121
GAAAATGA	-0.0055
AATAATGA	0.0641
ATGCGAAT	0.132
AGACCAAG	0.0702
ACCGGTAC	-0.298
GAATGCAA	0.0701
TGGAGGAA	-0.0748
CGATAAGC	-0.0581
AGATAGGG	0.0478
CGATTCTA	-0.148
CTGCCAAA	0.0246
CTACCGCC	-0.0974
AGTCCACT	-0.182
AAGAAGGT	0.0446
AAAAGTCC	0.006
AAGAACGG	0.0233
AGAAGGCC	-0.134
AAGTCATC	-0.059
ATTGCAAG	0.137
CATGTGGC	0.0563
CCCGAAAG	0.118
AGGCAGAA	0.0979

Sequence	PBM E-score
AAGGCTAT	-0.18
AGATCACA	-0.0181
CCACTTAC	0.174
CTAGCCGC	0.00502
AGAGATCC	0.0789
ACTACAAT	0.153
GGCGCGCC	0.187
GGAAGTTA	0.144
AGGCATCC	-0.161
ATTTCCCA	0.153
ATAACACG	0.0449
CCCCCCGG	-0.397
GGTTCATA	-0.016
AATCAAAC	0.222
CCCTGTGA	0.059
CCTGTTAC	0.0314
CGAACAGC	-0.041
CTGTGAAG	0.0207
GTTGCTAA	0.196
CGATCTAC	-0.00988
CTATATAC	0.238
CCAACAGG	-0.0342
CCCGTTCA	0.096
ACCTGATA	0.0459
TTGACAAA	0.094

As entered above.
CCCCCCGG – PBM E-score: -0.397
CTATATAC – PBM E-score: 0.238
AAGGCTAT – PBM E-score: -0.18
CGATCTAC – PBM E-score: -0.00988
GGCGCGCC – PBM E-score: 0.187
TTGACAAA – PBM E-score: 0.094
ACTACAAT – PBM E-score: 0.153

More records follow:

Sequence	PBM E-score
AAAGGGGG	-0.327
GTGGCTAA	0.0968
ACAATCGT	-0.101
GGTACTAA	0.115
CCAAGCGG	-0.234
ACGATCCC	-0.0731
AGAGCAAG	0.176
ACACGAGT	0.126
GGCCACCA	0.0277
CGTCCATA	-0.00049
GCGGTATA	-0.00849
CGGAATTA	0.105
ATAGCCTA	-0.0628
AGGCTTAT	-0.161
ATAACGGA	0.167
AATACAGG	0.13
GCTGCTAA	0.0172
CGTGCAAC	0.0176
GTCTTAGA	-0.0799
ACGCGCCC	-0.029
GTTGGCTA	-0.0794
AACAGATC	0.0888
GGGTTACC	-0.168
CCAGTCCG	-0.219
CCATTATC	0.0766

Sequence	PBM E-score
CATTTCAC	-0.0548
TAATCAGA	0.133
GCCCTCAC	-0.177
CTCCGCAC	-0.157
CATCTGCC	-0.105
AACTGCTC	0.0284
CCTGGGGC	-0.17
ACATGAAT	-0.00677
CGCTCTCC	-0.0921
CCCCTCCA	-0.0431
CTATAACA	-0.182
ACGATGGG	-0.00605
AGATTCCC	0.0719
AGGGACTG	0.119
ATACGCGG	-0.016
GCAAAAGA	0.0641
GTGTTTAA	0.113
ACGATTAG	0.0965
ATAGCCCG	-0.218
